Measurements published in US20070224199A1.
These are yes or no findings as the source states them, for the method shown. For some of these results: Binding seen in cells or lysates may run through a third protein. Some results given as binding are weak or reduced against the parent protein; the word gives no strength. Sequences can lack the tags named with a protein.

Protein sequences, listed by entry. Tags and fused reporters are not part of them. Lines headed by an entry give the natural chain unless they say otherwise; changes in a name come on top. Residues count along the entry.
UniProt O14746: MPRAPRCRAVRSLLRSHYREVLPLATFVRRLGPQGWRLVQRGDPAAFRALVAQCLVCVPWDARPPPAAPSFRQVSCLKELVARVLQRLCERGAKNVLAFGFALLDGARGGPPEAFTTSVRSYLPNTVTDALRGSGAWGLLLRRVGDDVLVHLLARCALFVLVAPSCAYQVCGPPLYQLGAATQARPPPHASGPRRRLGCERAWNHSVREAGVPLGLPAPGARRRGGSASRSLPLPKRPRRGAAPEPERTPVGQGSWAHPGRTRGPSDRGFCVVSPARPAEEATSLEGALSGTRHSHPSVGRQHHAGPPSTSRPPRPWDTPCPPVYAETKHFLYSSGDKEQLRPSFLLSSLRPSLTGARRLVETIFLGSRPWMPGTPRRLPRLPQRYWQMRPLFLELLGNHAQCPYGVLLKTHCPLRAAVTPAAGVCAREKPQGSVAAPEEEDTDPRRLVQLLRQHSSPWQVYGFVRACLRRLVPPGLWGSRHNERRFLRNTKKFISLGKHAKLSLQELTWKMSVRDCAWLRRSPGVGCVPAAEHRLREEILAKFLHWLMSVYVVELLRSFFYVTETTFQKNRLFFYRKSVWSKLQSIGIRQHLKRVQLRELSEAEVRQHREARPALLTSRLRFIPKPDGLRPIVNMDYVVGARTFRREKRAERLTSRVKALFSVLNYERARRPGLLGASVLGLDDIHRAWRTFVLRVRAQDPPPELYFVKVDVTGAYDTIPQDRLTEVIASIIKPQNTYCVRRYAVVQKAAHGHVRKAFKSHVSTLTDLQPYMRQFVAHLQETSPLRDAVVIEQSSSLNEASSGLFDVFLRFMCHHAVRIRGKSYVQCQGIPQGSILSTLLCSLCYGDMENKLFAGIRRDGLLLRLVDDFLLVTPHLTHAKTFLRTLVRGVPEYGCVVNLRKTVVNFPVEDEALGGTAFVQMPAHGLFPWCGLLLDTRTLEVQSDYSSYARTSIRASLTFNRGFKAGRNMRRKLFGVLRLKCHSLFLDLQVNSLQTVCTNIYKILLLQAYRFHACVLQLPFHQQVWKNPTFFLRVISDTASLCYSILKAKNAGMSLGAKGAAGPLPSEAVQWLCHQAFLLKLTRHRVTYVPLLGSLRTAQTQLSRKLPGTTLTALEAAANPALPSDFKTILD
pLexA-hTERT (amino acid 946-1132) bait: residues 946-1132 of O14746

Tests used:
[1] = biological target: pLexA-hTERT (amino acid 946-1132) bait (human) (UniProt O14746); assay: yeast two-hybrid, LacZ reporter
[2] = biological target: pLexA-hTERT (amino acid 946-1132) bait (human) (UniProt O14746); assay: yeast two-hybrid screen of a HeLa cDNA library, LacZ reporter
[3] = biological target: pLexA-hTERT (amino acid 946-1132) bait (human) (UniProt O14746); assay: figure title; yeast two-hybrid assay (panel A) and co-immunoprecipitation (panels C, D)
[4] = biological target: hTERT-HA (C-terminal HA-tagged hTERT) (human) (UniProt O14746); assay: co-immunoprecipitation from H1299 cells (anti-HA IP, anti-V5 immunoblot), with ALLnN

B1: MKRN1 prey (Makorin ring finger protein 1 clone from a HeLa cDNA library fused to the activation domain of vector pB42AD) (protein, not shown: large carriers)
chain: MAEAATPGTTATTSGAGAAAATAAAASPTPIPTVTAPSLGAGGGGGGSDGSGGGWTKQVTCRYFMHGVCKEGDNCRYSHDLSDSPYSVVCKYFQRGYCIYGDRCRYEHSKPLKQEEATATELTTKSSLAASSSLSSIVGPLVEMNTGEAESRNSNFATVGAGSEDWVNAIEFVPGQPYCGRTAPSCTEAPLQGSVTKEESEKEQTAVETKKQLCPYAAVGECRYGENCVYLHGDSCDMCGLQLLHPMDAAQRSQHIKSCIEAHEKDMELSFAVQRSKDMVCGICMEVVYEKANPSERRFGILSNCNHTYCLKCIRKWRSAKQFESKIIKSCPECRITSNFVIPSEYWVEEKEEKQKLILKYKEAMSNKACRYFDEGRGSCPFGGNCFYKHAYPDAGREEPQRQKVGTSSRYRAQRRNHFWELIEERENSNPFDNDEEEVVTFELGEMLLMLLAAGGDDELTDSEDEWDLFHDELEDFYDLDL
binding [1]: binds
binding [2]: binds
binding [3]: binds

B2: MKRN1-V5 (enzyme, not shown: small tags and cut ends)
chain: B1 chain
binding [4]: binds
